# Hit rate of the full screen: of about 400,000 compounds, about 13,000 (3.2%) were called active. Inconclusive means that the source gave no clear call. Such entries were picked first, then a sample of the others. The call rests on the fitted dose curve; in most records, active means well fitted cell-killing curve with a large enough effect; inconclusive means small, poorly fitted or top-dose-only effect, or effect the other way; inactive means flat fitted curve, though single readings scatter. A potency beside an inconclusive call is a rough fit, not a confirmed value.
# Test: qHTS assay for MDR1-selective chemotherapeutics: Primary screen using the drug-selected MDR subline cells KB-V1; further: nearly all actives have a fitted effect of over 60% in size
# Conditions: KB-V1 MDR cells viability, CellTiter-Glo, 72 h; activity change, negative = cytotoxicity: at 46.1 µM (top of the series)
# Method in brief: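 Cells of the MDR subline KB-V1 are plated, dosed with compound at multiple concentrations, and incubated 72 h at 37 degrees C; CellTiter-Glo is then added and luminescence read after 10 min.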
# On the % scale 0 is the no-effect control and ±100 the full control effect; potency means the concentration at half of the fitted maximal effect.
Compound,Potency,"activity change, negative = cytotoxicity"
COc1ccccc1CCC(=O)Nc1cccc(S(=O)(=O)N2CCOCC2)c1,"inconclusive: 9.2 µM [cytotoxic, partial curve, poor fit]",–
Nc1cccc(B(O)O)c1,"inconclusive: 29.1 µM [rising, partial curve, poor fit]",–
C(=C\c1ccccn1)/c1ccccn1,–,inactive: 12%
CC1CC(C)CN(C(=S)Nc2ccc(SC(F)F)cc2)C1 (stereo not drawn),"inconclusive: 16.4 µM [cytotoxic, single point]",–
Cc1ccc(NC(=O)Cn2c(=O)ccc3cc(S(=O)(=O)N4CCC(C)CC4)ccc32)cc1C,"inconclusive: 0.58 µM [cytotoxic, full curve]",–
O=C(NNc1ccccn1)C(=O)NNS(=O)(=O)c1ccc(F)cc1,"inconclusive: 29.1 µM [cytotoxic, single point]",–
COc1c(C(=O)NCCSC(C)(C)C)ccc2ccccc12,–,inactive: -0.0976%
O=C(NC12CC3CC(CC(C3)C1)C2)N1CCN(c2ccccn2)CC1,"inconclusive: 18.4 µM [cytotoxic, partial curve]",–
CCC1=C(OC(=O)N(CC)CC)N2C(=O)OC(=NCCc3c[nH]c4ccccc34)[C@]2(Cc2ccccc2)[C@H]2C1=CC[C@H]1C(=O)N(C)C(=O)[C@H]12,"inconclusive: 0.0046 µM [rising, full curve, poor fit]",–
O=C(COc1ccc(Cl)cc1Cl)N1CCCCCC1,active: 20.6 µM,–
Cc1nc2ccccc2cc1C(=O)N/N=C/c1ccc([N+](=O)[O-])cc1,"inconclusive: 14.6 µM [cytotoxic, single point]",–
O=C(O)c1ccc(N=Nc2c(O)ccc3ncccc23)cc1,"inconclusive: 23.1 µM [cytotoxic, partial curve, poor fit]",–
COC(c1ccccc1)c1nnc(CCC(=O)N(C)Cc2cccc(-n3cccn3)c2)o1 (stereo not drawn),"inconclusive: 5.17 µM [cytotoxic, full curve]",–
COc1ccc(OC)c(CCNC(=O)c2ccc3c(c2)N(Cc2ccc(F)cc2)CCS3)c1,"inconclusive: 11.6 µM [cytotoxic, partial curve, poor fit]",–
COC(=O)CN(C(=S)Nc1ccccc1)C1CC(=O)N(c2ccc(OC)cc2)C1=O (stereo not drawn),"inconclusive: 18.4 µM [cytotoxic, partial curve, poor fit]",–
Cn1c(N)c(C(=O)COC(=O)c2cccc(S(=O)(=O)N3CCCCC3)c2)c(=O)n(C)c1=O,–,inactive: 0.955%
CC(=O)N1NC(=Nc2ccccc2)SC1(C)C,active: 18.4 µM,–
CC1CCCCN1C(=O)CSc1nnc2c(n1)[nH]c1ccccc12 (stereo not drawn),"inconclusive: 9.2 µM [cytotoxic, partial curve]",–
COc1ccc(S(=O)(=O)N2CCCOC2CNC(=O)C(=O)NCc2ccco2)cc1C (stereo not drawn),"inconclusive: 29.1 µM [cytotoxic, single point]",–
CCOc1ccc(CCNC(=O)C2=C(C)C(=O)OC23CCCCC3)cc1OCC,"inconclusive: 6.51 µM [cytotoxic, partial curve]",–
CCn1c(=O)cc(OCC(=O)NCCc2cccc(C)c2)c2ccccc21,"inconclusive: 29.1 µM [cytotoxic, single point]",–
CCOc1ccccc1CNc1nc2nc(C)c(CC(=O)OC)c(=O)n2[nH]1,"inconclusive: 16.4 µM [rising, single point]",–

# Molecules shown so far that contain an aryl thioether with sulfur outside any ring (2):
Compound,Potency,"activity change, negative = cytotoxicity"
CC1CC(C)CN(C(=S)Nc2ccc(SC(F)F)cc2)C1 (stereo not drawn),"inconclusive: 16.4 µM [cytotoxic, single point]",–
CC1CCCCN1C(=O)CSc1nnc2c(n1)[nH]c1ccccc12 (stereo not drawn),"inconclusive: 9.2 µM [cytotoxic, partial curve]",–

# Remaining list, next part

Compound,Potency,"activity change, negative = cytotoxicity"
COc1cccc(CN(C)C(=O)c2cccc(S(=O)(=O)N3CCN(c4ccc(F)cc4)CC3)c2)c1OC,"inconclusive: 7.31 µM [cytotoxic, partial curve, poor fit]",–
CCOc1cc2[nH]c(=S)n(CCC(=O)NC3CCCCC3)c(=O)c2cc1OCC,–,inactive: 1.14%
Cc1ccc(C(C)C)cc1OCC(=O)Nc1ccccc1N1CCCC1,–,inactive: -18.6%
COc1cccc(C(O)c2nc(-c3ccncc3)cs2)c1 (stereo not drawn),"inconclusive: 11.6 µM [cytotoxic, partial curve, poor fit]",–
Cc1cc(C)n(-c2ccc(C(=O)N3CCc4ccccc43)cc2)n1,"inconclusive: 14.6 µM [cytotoxic, partial curve, poor fit]",–
CCc1ccc(CNCCNCC(C)O)cc1 (stereo not drawn),"inconclusive: 32.6 µM [cytotoxic, single point]",–
Cc1[nH]nc(-c2cccnc2)c1N=NN(C)C,active: 16.4 µM,–
COC(=O)CCC(=O)NS(=O)(=O)c1ccc(N=NN2CCOCC2)cc1,–,inactive: 1.59%
Cc1ccccc1S(=O)(=O)Cc1ccc(C(=O)N2CCN(c3ccccc3F)CC2)o1,"inconclusive: 3.66 µM [cytotoxic, full curve]",–
Cc1cc(CNC(=O)c2cccc([N+](=O)[O-])c2C)c2ccccc2n1,active: 5.8 µM,–
CC(=O)C1=C(C)Nc2ncnn2C1c1ccccc1F (stereo not drawn),"inconclusive: 20.6 µM [rising, single point]",–
COc1ccc(Cl)cc1S(=O)(=O)N1CCN(C(=O)c2cc(-c3ccc(Br)cc3)n[nH]2)CC1,"inconclusive: 29.1 µM [cytotoxic, single point]",–
Cc1c(NC(=O)CN2CCN(C(=O)c3ccco3)CC2)c(=O)n(-c2ccccc2)n1C,–,inactive: 12.1%
CCCC(=O)N(CCN(C(=O)CCC)c1ccccc1)c1ccccc1,active: 10.3 µM,–
O=C(Nc1ccc(-c2cn3ccsc3n2)cc1)C1CC1,"inconclusive: 29.1 µM [cytotoxic, single point]",–
O=C(CN1CCOc2ccccc21)NCc1ccccc1,"inconclusive: 29.1 µM [rising, single point]",–
CC(=O)[C@H]1CCC2C3CC=C4C[C@@H](O)CC[C@]4(C)C3CC[C@@]21C (stereo partly drawn),"inconclusive: 29.1 µM [cytotoxic, single point]",–
CCCCN(C(=O)/C=C/c1ccc(OCC(C)C)c(OCC)c1)c1c(N)n(CCC)c(=O)[nH]c1=O,"inconclusive: 29.1 µM [rising, single point]",–
Cc1cc(C)n2nc(C(=O)Nc3cccc(S(=O)(=O)N(C)c4ccccc4)c3)nc2n1,–,inactive: -7.62%
CCCCn1c(SCC(=O)NCC2CCCO2)nc2ccc(N3CCOCC3)cc2c1=O (stereo not drawn),active: 3.66 µM,–
COc1ccc([C@H]2CC(=O)C=C(c3ccc(Cl)cc3C)C2)cc1,"inconclusive: 5.8 µM [cytotoxic, single point]",–

# Source: PubChem BioAssay AID1347076 (National Center for Advancing Translational Sciences (NCATS), 2019)
